# This is one part of the list.
# Tests used:
# Assay in all cases: glycan array binding signal (z-score within array); higher = stronger binding
# Conditions in all cases: glycan notation: IUPAC condensed, linker removed
# [1] = molecular target: Neu5Ac(a2-3)Gal(b1-4)GlcNAc(b1-2)[Neu5Ac(a2-3)Gal(b1-4)GlcNAc(b1-4)]Man(a1-3)[GlcNAc(b1-4)][Neu5Ac(a2-3)Gal(b1-4)GlcNAc(b1-2)[Neu5Ac(a2-3)Gal(b1-4)GlcNAc(b1-6)]Man(a1-6)]Man(b1-4)GlcNAc(b1-4)GlcNAc
# Outline: (§1)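 Negative Z-scores can be read as non-binding. The Z-score is calculated within each array and then averaged across arrays of one protein sequence at different concentrations or buffers and across linkers. Arrays, 3228 in all, were curated from the Consortium for Functional Glycomics database and kept only where the protein sequence was available.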
# [2] = molecular target: Neu5Ac(a2-3)Gal(b1-4)GlcNAc(b1-2)[Neu5Ac(a2-3)Gal(b1-4)GlcNAc(b1-4)]Man(a1-3)[GlcNAc(b1-4)][Neu5Ac(a2-3)Gal(b1-4)GlcNAc(b1-4)Man(a1-6)]Man(b1-4)GlcNAc(b1-4)GlcNAc
# Outline: as §1
# [3] = molecular target: Neu5Ac(a2-3)Gal(b1-4)GlcNAc(b1-2)[Neu5Ac(a2-3)Gal(b1-4)GlcNAc(b1-6)]Man(a1-6)[Neu5Ac(a2-3)Gal(b1-4)GlcNAc(b1-2)Man(a1-3)]Man(b1-4)GlcNAc(b1-4)GlcNAc
# Outline: as §1
# [4] = molecular target: Neu5Ac(a2-3)Gal(b1-4)GlcNAc(b1-2)[Neu5Ac(a2-3)Gal(b1-4)GlcNAc(b1-6)]Man(a1-6)[Neu5Ac(a2-3)Gal(b1-4)GlcNAc(b1-2)Man(a1-3)][GlcNAc(b1-4)]Man(b1-4)GlcNAc(b1-4)GlcNAc
# Outline: as §1
# [5] = molecular target: Neu5Ac(a2-3)Gal(b1-4)GlcNAc(b1-3)Gal
# Outline: as §1
# [6] = molecular target: Neu5Ac(a2-3)Gal(b1-4)GlcNAc(b1-3)Gal(b1-3)GlcNAc
# Outline: as §1
# [7] = molecular target: Neu5Ac(a2-3)Gal(b1-4)GlcNAc(b1-3)Gal(b1-4)GlcNAc
# Outline: as §1
# [8] = molecular target: Neu5Ac(a2-3)Gal(b1-4)GlcNAc(b1-3)Gal(b1-4)GlcNAc(b1-2)Man(a1-3)[Neu5Ac(a2-3)Gal(b1-4)GlcNAc(b1-3)Gal(b1-4)GlcNAc(b1-2)Man(a1-6)]Man(b1-4)GlcNAc(b1-4)GlcNAc
# Outline: as §1
# [9] = molecular target: Neu5Ac(a2-3)Gal(b1-4)GlcNAc(b1-3)Gal(b1-4)GlcNAc(b1-3)Gal(b1-4)GlcNAc
# Outline: as §1
# [10] = molecular target: Neu5Ac(a2-3)Gal(b1-4)GlcNAc(b1-3)Gal(b1-4)GlcNAc(b1-3)Gal(b1-4)GlcNAc(b1-2)Man(a1-3)[Neu5Ac(a2-3)Gal(b1-4)GlcNAc(b1-3)Gal(b1-4)GlcNAc(b1-3)Gal(b1-4)GlcNAc(b1-2)Man(a1-6)]GalNAc
# Outline: as §1
# [11] = molecular target: Neu5Ac(a2-3)Gal(b1-4)GlcNAc(b1-3)Gal(b1-4)GlcNAc(b1-3)GalNAc
# Outline: as §1
# [12] = molecular target: Neu5Ac(a2-3)Gal(b1-4)GlcNAc(b1-3)Gal(b1-4)GlcNAc(b1-3)[Neu5Ac(a2-3)Gal(b1-4)GlcNAc(b1-3)Gal(b1-4)GlcNAc(b1-6)]GalNAc
# Outline: as §1
# [13] = molecular target: Neu5Ac(a2-3)Gal(b1-4)GlcNAc(b1-3)Gal(b1-4)GlcNAc(b1-6)[Gal(b1-3)]GalNAc
# Outline: as §1
# [14] = molecular target: Neu5Ac(a2-3)Gal(b1-4)GlcNAc(b1-3)Gal(b1-4)[Fuc(a1-3)]GlcNAc
# Outline: as §1
# [15] = molecular target: Neu5Ac(a2-3)Gal(b1-4)GlcNAc(b1-3)GalNAc
# Outline: as §1
# [16] = molecular target: Neu5Ac(a2-3)Gal(b1-4)GlcNAc(b1-3)[Neu5Ac(a2-3)Gal(b1-4)GlcNAc(b1-6)]GalNAc
# Outline: as §1
# [17] = molecular target: Neu5Ac(a2-3)Gal(b1-4)GlcNAc(b1-6)GalNAc
# Outline: as §1
# [18] = molecular target: Neu5Ac(a2-3)Gal(b1-4)GlcNAc(b1-6)[Gal(b1-3)]GalNAc
# Outline: as §1
# [19] = molecular target: Neu5Ac(a2-3)Gal(b1-4)GlcNAc(b1-6)[Neu5Ac(a2-3)Gal(b1-3)]GalNAc
# Outline: as §1
# [20] = molecular target: Neu5Ac(a2-3)Gal(b1-4)GlcNAc6S
# Outline: as §1
# [21] = molecular target: Neu5Ac(a2-3)Gal(b1-4)[Fuc(a1-3)]GlcNAc
# Outline: as §1
# [22] = molecular target: Neu5Ac(a2-3)Gal(b1-4)[Fuc(a1-3)]GlcNAc(b1-2)Man
# Outline: as §1
# [23] = molecular target: Neu5Ac(a2-3)Gal(b1-4)[Fuc(a1-3)]GlcNAc(b1-3)Gal
# Outline: as §1
# [24] = molecular target: Neu5Ac(a2-3)Gal(b1-4)[Fuc(a1-3)]GlcNAc(b1-3)Gal(b1-4)GlcNAc
# Outline: as §1
# [25] = molecular target: Neu5Ac(a2-3)Gal(b1-4)[Fuc(a1-3)]GlcNAc(b1-3)Gal(b1-4)[Fuc(a1-3)]GlcNAc(b1-3)Gal(b1-4)[Fuc(a1-3)]GlcNAc
# Outline: as §1
# [26] = molecular target: Neu5Ac(a2-3)Gal(b1-4)[Fuc(a1-3)]GlcNAc(b1-3)GalNAc
# Outline: as §1
# [27] = molecular target: Neu5Ac(a2-3)Gal(b1-4)[Fuc(a1-3)]GlcNAc(b1-6)[Gal(b1-3)]GalNAc
# Outline: as §1
# [28] = molecular target: Neu5Ac(a2-3)Gal(b1-4)[Fuc(a1-3)]GlcNAc(b1-6)[Neu5Ac(a2-3)Gal(b1-3)]GalNAc
# Outline: as §1
# [29] = molecular target: Neu5Ac(a2-3)Gal(b1-4)[Fuc(a1-3)]GlcNAc6S
# Outline: as §1
# [30] = molecular target: Neu5Ac(a2-3)Gal6S(b1-4)GlcNAc
# Outline: as §1
# [31] = molecular target: Neu5Ac(a2-3)Gal6S(b1-4)[Fuc(a1-3)]GlcNAc
# Outline: as §1
# Neu5Ac(a2-3)GalNAc = molecular target: Neu5Ac(a2-3)GalNAc
# Outline: as §1
# [32] = molecular target: Neu5Ac(a2-3)GalNAc(b1-4)GlcNAc
# Outline: as §1
# [33] = molecular target: Neu5Ac(a2-3)[GalNAc(b1-4)]Gal(b1-4)Glc
# Outline: as §1
# [34] = molecular target: Neu5Ac(a2-3)[GalNAc(b1-4)]Gal(b1-4)GlcNAc
# Outline: as §1
# [35] = molecular target: Neu5Ac(a2-3)[GalNAc(b1-4)]Gal(b1-4)GlcNAc(b1-3)GalNAc
# Outline: as §1
# [36] = molecular target: Neu5Ac(a2-3)[Neu5Ac(a2-6)]GalNAc
# Outline: as §1
binder,measurement,setting,value
SP15308B-bot-339-22-339 (Bacteroides ovatus) (protein) NEWEDEQYEQYVSFKAPIASGSDGVTTIYVRYKDNGKVTYQLPIIVSGSTVNSQDRDIHIAVDKDTLKTLNIERFSLYRPELWYTEMEEDKYEFPETVHIPAGSCVELLNIDFNLQDIDMLEKWVLPLTIVDDGSYAYQSHPRKNYAKALLKVVPFNNYSGSYTASSMKVYTYINGKPDTNARTTDKRTGYVVDNNSIFFYAGLINEDMDKDMRKKYKINVHFKEDGTLDMKQDDPSNEMEFELIGTPTYSSTSVMDATRPYLERRYVQIMFEYDFQDFTYGGSGTEVIPIKYRVAGSMTLLRNINTQIPDEDQQIEW,glycan array binding signal (z-score),[1],-0.547
same,glycan array binding signal (z-score),[2],0.424
same,glycan array binding signal (z-score),[3],0.067
same,glycan array binding signal (z-score),[4],-0.513
same,glycan array binding signal (z-score),[5],-0.261
same,glycan array binding signal (z-score),[6],-0.681
same,glycan array binding signal (z-score),[7],-0.477
same,glycan array binding signal (z-score),[8],-0.361
same,glycan array binding signal (z-score),[9],-0.253
same,glycan array binding signal (z-score),[10],1.14
same,glycan array binding signal (z-score),[11],-0.308
same,glycan array binding signal (z-score),[12],-0.158
same,glycan array binding signal (z-score),[13],-0.412
same,glycan array binding signal (z-score),[14],0.04
same,glycan array binding signal (z-score),[15],-0.232
same,glycan array binding signal (z-score),[16],0.108
same,glycan array binding signal (z-score),[17],-0.334
same,glycan array binding signal (z-score),[18],-0.61
same,glycan array binding signal (z-score),[19],-0.319
same,glycan array binding signal (z-score),[20],-0.466
same,glycan array binding signal (z-score),[21],-0.494
same,glycan array binding signal (z-score),[22],0.331
same,glycan array binding signal (z-score),[23],-0.207
same,glycan array binding signal (z-score),[24],0.57
same,glycan array binding signal (z-score),[25],-0.223
same,glycan array binding signal (z-score),[26],2.38
same,glycan array binding signal (z-score),[27],0.253
same,glycan array binding signal (z-score),[28],0.467
same,glycan array binding signal (z-score),[29],-0.53
same,glycan array binding signal (z-score),[30],-0.082
same,glycan array binding signal (z-score),[31],-0.121
same,glycan array binding signal (z-score),Neu5Ac(a2-3)GalNAc,-0.415
same,glycan array binding signal (z-score),[32],-0.165
same,glycan array binding signal (z-score),[33],-0.526
same,glycan array binding signal (z-score),[34],-0.212
same,glycan array binding signal (z-score),[35],1.01
same,glycan array binding signal (z-score),[36],-0.18

# 8 entries from above in a different format:
binder	measurement	setting	value
SP15308B-bot-339-22-339 (Bacteroides ovatus) (protein) NEWEDEQYEQYVSFKAPIASGSDGVTTIYVRYKDNGKVTYQLPIIVSGSTVNSQDRDIHIAVDKDTLKTLNIERFSLYRPELWYTEMEEDKYEFPETVHIPAGSCVELLNIDFNLQDIDMLEKWVLPLTIVDDGSYAYQSHPRKNYAKALLKVVPFNNYSGSYTASSMKVYTYINGKPDTNARTTDKRTGYVVDNNSIFFYAGLINEDMDKDMRKKYKINVHFKEDGTLDMKQDDPSNEMEFELIGTPTYSSTSVMDATRPYLERRYVQIMFEYDFQDFTYGGSGTEVIPIKYRVAGSMTLLRNINTQIPDEDQQIEW	glycan array binding signal (z-score)	[15]	-0.232
same	glycan array binding signal (z-score)	[16]	0.108
same	glycan array binding signal (z-score)	[17]	-0.334
same	glycan array binding signal (z-score)	[18]	-0.61
same	glycan array binding signal (z-score)	[19]	-0.319
same	glycan array binding signal (z-score)	[20]	-0.466
same	glycan array binding signal (z-score)	[21]	-0.494
same	glycan array binding signal (z-score)	[22]	0.331

# From the supplement of paper PMC8728848
